Reference: patent US5187103A, “Colorimetric method and reagent for the assay of lithium in a test sample” (Miles Inc., priority 1991, dated 1993)

What was measured:
[1] = Interference study on TECHNICON RA-1000 analyzer (second Table IV); parameters: species or system human; details: for recovered mM Li^+: serum with 1.0 mM LiCl
[2] = Effect of organic solvent (DEGMEE) concentration on sensitivity and selectivity; details: 25% DEGMEE
Method: The UV-VIS spectra of p-nitrophenylazophenol (1.1.0) cryptand in complexation with various ions, i.e. Na^+ K^+, and Li^+, were determined in 1 to 2×10^-4 M solutions of the cryptand in 2 to 50% volume to volume (v/v) DEGMEE in water. A 1×10^-2 M stock solution of the cryptand was prepared in DEGMEE. Typically, the solutions were prepared as follows: for the spectral characteristics in 10% v/v DEGMEE, 0.2 ml of the stock solution was added to 0.8 ml DEGMEE. The diluted cryptand was quantitatively transferred to 9.0 ml of the appropriate reagent and mixed. 1N HCl was used to obtain the acid form (HL) and 1M TMAOH for the base form of the cryptand which is designated in the following tables as L. Tne resulting solutions were scanned from 700 to 300 nm on a Beckman DU-8 spectrophotometer. The spectra of the cation complexes of p-nitrophenylazophenol (1.1.0) cryptand in 10% v/v DEGMEE/1M TMAOH were obtained by adding 0.02 ml LiCl, KCl, NaCl, all 1N to their respective cuvettes containing 2 ml of reagent and scanned from 700 to 300 nm.
However, high concentration of solvent also affects the selectivity; at 25% DEGMEE, interference by 140 mM Na^+ corresponds to 0.1 mM Li^+, which is not acceptable for clinical purposes. The selectivity requirements of the lithium assay are high, in certain cases where the concentration of lithium is near 0.1 mM, the molar ratio of Li^+ :Na^+ is about 1:1500. […]

## CC(O)C(=O)O (centres unmarked) [Lactic Acid]
[1]; interferent at 85 mg/dl
  recovered mM Li^+: 1.00 mM

## CN1CC(=O)NC1=N [Creatinine]
[1]; interferent at 50 mg/dl
  recovered mM Li^+: 0.98 mM

## CCO [Ethanol]
[1]; interferent at 150 mg/dl
  recovered mM Li^+: 1.00 mM

## O=c1[nH]c(=O)c2[nH]c(=O)[nH]c2[nH]1 [Uric Acid]
[1]; interferent at 50 mg/dl
  recovered mM Li^+: 1.00 mM

## Cl.N [NH4 Cl]
[1]; interferent at 2 mM
  recovered mM Li^+: 1.00 mM

## NC(N)=O [Urea]
[1]; interferent at 50 mg/dl
  recovered mM Li^+: 1.02 mM

## [Cl-].[Na+] [NaCl]
[1]; interferent at 200 mM
  recovered mM Li^+: 0.98 mM
[1]; interferent at 500 mM
  recovered mM Li^+: 0.98 mM

## O=C[C@H](O)[C@@H](O)[C@H](O)[C@H](O)CO [Glucose]
[1]; interferent at 4 g/dl
  recovered mM Li^+: 0.99 mM

## O=[N+]([O-])c1ccc(N=Nc2cc3c(O)c(c2)CCN2CCOCCN(CCOCC2)CC3)cc1 [p-nitrophenylazophenol (1.1.0) cryptand]
[2]
  interference by 140 mM Na^+, corresponding Li^+ concentration: 0.1 mM

## C=CC1=C(C)/C(=C/c2[nH]c(Cc3[nH]c(/C=C4\NC(=O)C(C)=C4C=C)c(C)c3CCC(=O)O)c(CCC(=O)O)c2C)NC1=O [Bilirubin]
[1]; icteric samples
  bilirubin level not requiring sample blank correction: up to 10 mg/dl
[1]; interferent at 10 mg/dl
  recovered mM Li^+: 1.00 mM

## O=C1O[C@H]([C@@H](O)CO)C(O)=C1O [Ascorbic Acid]
[1]; interferent at 50 mg/dl
  recovered mM Li^+: 0.98 mM

## Hb: potential interfering substance, 60 mg/dl Hb (1% hemolysis)
[1]; interferent at 60 mg/dl (1% hemolysis)
  recovered mM Li^+: 1.13 mM
